# ± gives the standard deviation of the averaged measurements. Only a part is listed here, and it is no random draw.
# Protein sequences, listed by entry. Tags and fused reporters are not part of them. Lines headed by an entry give the natural chain unless they say otherwise; changes in a name come on top.
# UniProt Q96GM5, whole entry: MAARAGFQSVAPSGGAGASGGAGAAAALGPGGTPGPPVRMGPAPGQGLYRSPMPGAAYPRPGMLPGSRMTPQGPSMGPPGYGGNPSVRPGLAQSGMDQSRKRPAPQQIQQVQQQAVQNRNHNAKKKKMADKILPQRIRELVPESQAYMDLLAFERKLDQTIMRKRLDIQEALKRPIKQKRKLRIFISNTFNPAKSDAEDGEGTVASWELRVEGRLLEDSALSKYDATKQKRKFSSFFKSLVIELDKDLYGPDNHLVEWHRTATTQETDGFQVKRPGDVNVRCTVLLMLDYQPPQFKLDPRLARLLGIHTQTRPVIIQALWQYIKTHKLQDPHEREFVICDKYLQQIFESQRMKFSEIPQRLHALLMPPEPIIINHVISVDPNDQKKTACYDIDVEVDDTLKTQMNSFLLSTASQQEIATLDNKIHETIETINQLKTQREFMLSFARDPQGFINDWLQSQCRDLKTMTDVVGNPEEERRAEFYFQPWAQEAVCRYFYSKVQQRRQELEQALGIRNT
# UniProt Q96Q45: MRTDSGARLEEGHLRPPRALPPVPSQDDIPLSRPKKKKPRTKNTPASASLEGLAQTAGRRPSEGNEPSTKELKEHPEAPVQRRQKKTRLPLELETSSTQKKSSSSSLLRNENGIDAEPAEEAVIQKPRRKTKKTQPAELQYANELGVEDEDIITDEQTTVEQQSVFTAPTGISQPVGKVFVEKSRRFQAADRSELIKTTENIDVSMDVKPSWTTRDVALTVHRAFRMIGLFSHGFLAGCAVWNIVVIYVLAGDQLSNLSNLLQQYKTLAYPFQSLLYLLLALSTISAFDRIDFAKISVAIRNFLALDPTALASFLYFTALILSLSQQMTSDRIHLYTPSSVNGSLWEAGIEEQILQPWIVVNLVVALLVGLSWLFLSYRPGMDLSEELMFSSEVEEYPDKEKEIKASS
# UniProt Q96GK7: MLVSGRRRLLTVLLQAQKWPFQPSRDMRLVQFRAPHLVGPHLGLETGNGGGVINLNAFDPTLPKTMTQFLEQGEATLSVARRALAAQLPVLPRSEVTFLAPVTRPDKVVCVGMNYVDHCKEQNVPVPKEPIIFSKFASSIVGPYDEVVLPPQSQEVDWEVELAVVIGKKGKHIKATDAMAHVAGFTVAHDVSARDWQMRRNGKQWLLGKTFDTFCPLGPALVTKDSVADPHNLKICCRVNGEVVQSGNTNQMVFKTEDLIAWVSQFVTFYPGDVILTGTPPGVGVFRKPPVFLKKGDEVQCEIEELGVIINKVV
# UniProt Q96CW6: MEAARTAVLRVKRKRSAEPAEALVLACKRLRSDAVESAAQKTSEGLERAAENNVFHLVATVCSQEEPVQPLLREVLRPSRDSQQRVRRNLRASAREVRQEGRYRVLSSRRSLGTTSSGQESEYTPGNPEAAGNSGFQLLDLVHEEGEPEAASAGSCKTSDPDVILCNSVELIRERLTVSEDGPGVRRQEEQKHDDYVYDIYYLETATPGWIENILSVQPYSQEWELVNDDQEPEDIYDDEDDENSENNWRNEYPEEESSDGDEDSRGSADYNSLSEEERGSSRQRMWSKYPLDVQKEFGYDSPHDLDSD
# UniProt Q96GX9: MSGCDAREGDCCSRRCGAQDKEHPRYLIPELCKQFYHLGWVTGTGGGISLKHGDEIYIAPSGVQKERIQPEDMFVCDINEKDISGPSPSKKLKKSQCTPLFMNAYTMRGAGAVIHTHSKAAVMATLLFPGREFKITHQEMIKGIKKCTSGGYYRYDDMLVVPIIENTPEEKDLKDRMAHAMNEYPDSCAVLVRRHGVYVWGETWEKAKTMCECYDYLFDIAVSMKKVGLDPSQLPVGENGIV
# UniProt Q96EW2: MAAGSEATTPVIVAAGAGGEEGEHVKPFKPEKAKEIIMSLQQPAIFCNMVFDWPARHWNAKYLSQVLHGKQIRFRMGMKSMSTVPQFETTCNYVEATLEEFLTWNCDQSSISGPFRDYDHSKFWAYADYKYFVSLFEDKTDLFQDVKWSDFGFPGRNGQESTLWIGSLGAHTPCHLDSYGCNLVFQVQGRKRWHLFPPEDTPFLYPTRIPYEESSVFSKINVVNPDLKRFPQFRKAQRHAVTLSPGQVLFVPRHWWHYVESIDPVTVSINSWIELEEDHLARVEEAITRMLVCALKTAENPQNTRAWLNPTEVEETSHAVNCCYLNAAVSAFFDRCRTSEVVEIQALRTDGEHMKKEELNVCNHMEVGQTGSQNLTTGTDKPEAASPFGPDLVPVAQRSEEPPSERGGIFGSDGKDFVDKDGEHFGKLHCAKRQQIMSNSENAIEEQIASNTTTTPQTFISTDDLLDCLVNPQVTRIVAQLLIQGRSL
# UniProt Q96Q11: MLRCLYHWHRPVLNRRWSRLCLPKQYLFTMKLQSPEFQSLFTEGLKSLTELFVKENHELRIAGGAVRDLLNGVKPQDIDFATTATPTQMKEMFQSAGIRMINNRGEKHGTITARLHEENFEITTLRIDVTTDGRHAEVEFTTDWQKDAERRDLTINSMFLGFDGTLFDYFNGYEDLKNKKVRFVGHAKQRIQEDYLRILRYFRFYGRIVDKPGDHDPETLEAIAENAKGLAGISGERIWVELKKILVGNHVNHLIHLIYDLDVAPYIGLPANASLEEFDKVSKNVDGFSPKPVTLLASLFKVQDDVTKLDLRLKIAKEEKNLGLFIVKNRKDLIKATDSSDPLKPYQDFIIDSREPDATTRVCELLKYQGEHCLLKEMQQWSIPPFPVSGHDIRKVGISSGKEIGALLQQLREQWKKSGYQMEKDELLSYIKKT
# UniProt Q96EY8: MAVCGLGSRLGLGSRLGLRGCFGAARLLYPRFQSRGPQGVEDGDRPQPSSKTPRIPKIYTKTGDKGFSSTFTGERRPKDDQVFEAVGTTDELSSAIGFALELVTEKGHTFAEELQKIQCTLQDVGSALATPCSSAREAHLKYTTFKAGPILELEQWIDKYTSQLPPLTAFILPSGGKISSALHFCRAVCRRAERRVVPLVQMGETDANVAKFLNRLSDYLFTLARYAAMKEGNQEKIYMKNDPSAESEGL
# UniProt Q96MG7: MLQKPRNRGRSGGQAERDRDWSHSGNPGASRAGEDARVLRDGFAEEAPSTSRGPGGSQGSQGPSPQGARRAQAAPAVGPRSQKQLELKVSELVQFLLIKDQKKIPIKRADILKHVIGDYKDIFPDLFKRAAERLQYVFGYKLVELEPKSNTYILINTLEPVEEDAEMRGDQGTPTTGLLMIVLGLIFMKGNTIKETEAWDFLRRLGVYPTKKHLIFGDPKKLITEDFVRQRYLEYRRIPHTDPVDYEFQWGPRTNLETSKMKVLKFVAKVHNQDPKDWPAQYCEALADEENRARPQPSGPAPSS
# UniProt Q96DA6: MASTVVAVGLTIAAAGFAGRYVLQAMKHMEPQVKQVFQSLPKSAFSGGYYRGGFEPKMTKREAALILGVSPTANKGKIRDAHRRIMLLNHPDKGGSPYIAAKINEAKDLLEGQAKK
# UniProt Q96I24: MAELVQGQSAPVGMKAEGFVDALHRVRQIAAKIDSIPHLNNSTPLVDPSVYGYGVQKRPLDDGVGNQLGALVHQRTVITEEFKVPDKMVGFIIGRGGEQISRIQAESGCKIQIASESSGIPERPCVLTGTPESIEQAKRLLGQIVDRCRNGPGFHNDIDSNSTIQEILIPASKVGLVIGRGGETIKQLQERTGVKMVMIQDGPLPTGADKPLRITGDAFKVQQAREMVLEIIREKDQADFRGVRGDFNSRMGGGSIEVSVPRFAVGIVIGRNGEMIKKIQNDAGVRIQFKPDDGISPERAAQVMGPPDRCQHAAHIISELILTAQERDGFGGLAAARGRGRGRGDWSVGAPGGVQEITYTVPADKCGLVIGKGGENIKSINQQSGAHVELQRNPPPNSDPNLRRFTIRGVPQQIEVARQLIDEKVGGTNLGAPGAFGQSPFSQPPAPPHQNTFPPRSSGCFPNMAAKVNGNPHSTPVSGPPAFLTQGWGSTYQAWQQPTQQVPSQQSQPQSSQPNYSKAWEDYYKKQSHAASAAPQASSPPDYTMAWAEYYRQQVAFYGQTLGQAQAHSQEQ
# UniProt Q96C36: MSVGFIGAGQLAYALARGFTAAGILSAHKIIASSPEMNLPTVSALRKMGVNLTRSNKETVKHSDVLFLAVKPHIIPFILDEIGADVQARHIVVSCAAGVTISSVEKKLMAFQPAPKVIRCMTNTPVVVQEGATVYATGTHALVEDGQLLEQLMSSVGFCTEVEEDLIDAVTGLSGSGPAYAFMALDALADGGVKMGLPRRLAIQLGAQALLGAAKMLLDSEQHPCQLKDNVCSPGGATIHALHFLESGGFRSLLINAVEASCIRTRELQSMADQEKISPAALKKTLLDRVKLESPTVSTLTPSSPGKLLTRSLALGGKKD
# UniProt Q96M27: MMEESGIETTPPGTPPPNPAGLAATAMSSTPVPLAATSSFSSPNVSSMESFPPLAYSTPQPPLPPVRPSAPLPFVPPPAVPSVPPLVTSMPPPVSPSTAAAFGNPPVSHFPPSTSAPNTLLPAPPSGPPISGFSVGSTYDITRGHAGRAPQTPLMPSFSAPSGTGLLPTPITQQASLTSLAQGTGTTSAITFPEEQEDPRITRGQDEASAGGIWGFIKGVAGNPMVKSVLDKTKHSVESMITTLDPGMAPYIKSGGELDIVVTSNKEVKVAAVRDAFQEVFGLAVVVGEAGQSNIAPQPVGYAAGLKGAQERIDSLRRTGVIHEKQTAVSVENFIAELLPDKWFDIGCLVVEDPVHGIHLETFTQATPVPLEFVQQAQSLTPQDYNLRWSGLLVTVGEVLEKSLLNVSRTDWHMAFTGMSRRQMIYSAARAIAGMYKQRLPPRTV
# UniProt Q969M3: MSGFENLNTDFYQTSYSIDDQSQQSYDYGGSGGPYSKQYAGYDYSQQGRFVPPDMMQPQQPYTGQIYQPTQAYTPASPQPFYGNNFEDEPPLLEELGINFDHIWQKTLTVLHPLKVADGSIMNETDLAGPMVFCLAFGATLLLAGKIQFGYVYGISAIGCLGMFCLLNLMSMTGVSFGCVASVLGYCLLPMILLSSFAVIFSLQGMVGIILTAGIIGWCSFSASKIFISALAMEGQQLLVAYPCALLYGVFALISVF
# UniProt Q96HE7: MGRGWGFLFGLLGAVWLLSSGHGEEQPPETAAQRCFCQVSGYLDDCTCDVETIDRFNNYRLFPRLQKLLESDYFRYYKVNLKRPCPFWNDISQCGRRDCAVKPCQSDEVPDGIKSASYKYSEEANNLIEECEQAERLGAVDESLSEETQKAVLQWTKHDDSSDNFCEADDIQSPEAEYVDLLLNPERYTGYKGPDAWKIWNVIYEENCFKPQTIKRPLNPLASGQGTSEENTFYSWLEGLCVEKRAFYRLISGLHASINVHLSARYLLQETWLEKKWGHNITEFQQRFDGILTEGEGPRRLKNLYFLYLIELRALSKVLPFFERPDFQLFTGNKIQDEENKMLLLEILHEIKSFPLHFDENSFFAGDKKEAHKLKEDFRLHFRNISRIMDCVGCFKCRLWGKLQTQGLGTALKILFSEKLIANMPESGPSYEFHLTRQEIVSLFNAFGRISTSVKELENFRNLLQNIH
# UniProt Q96GY3: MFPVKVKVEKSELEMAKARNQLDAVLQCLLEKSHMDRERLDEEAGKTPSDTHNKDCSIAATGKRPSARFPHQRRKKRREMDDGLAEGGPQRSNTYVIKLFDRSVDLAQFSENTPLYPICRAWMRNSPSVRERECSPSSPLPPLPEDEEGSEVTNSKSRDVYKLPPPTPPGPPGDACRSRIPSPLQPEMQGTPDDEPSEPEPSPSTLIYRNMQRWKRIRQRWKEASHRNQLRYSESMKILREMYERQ
# UniProt Q96DT6: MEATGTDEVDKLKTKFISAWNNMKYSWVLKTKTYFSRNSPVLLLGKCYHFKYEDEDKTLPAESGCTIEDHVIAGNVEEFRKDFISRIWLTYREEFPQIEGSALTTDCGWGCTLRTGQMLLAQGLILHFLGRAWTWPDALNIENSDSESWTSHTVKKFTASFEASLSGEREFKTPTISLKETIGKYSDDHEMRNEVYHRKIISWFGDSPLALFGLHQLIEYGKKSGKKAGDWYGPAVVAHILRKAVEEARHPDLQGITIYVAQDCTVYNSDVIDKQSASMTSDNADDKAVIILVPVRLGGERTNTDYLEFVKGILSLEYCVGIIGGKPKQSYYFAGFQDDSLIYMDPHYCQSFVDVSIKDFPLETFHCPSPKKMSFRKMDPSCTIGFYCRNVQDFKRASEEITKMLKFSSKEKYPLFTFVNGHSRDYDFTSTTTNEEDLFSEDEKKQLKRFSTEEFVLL
# Compound: Nc1ncnc2c1ncn2[C@@H]1O[C@H](COP(=O)(O)OP(=O)(O)NP(=O)(O)O)[C@@H](O)[C@H]1O [adenylyl imidodiphosphate]
# Assay: NP40-soluble protein abundance relative to vehicle (solubility fold change) (ratio); higher = more soluble protein in presence of AMP-PNP
# Settings: concentration: 8mM
# How it was run: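 Across three independent experiments, values are fold changes against the detergent-processed vehicle for each replicate, based on vsn-normalised intensities. The samples were Jurkat crude lysate treated with eight concentrations (0.1 to 10 mM) for 10 min at room temperature and then 3 min at 37 °C. Lysate was solubilised with 0.8% NP40 and benzonase, ultracentrifuged, and the supernatant analysed by TMT-labelled LC-MS/MS.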
row,Target,NP40-soluble protein abundance
1,METTL2A (UniProt Q96IZ6),0.99527 ± 0.00081
2,CHCHD1 (UniProt Q96BP2),0.982 ± 0.04
3,UniProt Q92997 and related entries,0.995 ± 0.048
4,SNF8 (UniProt Q96H20),0.952 ± 0.031
5,SMARCD1 (UniProt Q96GM5),1.03 ± 0.12
6,UniProt Q96PE3 and related entries,0.9689 ± 0.0027
7,UniProt Q96B01 and related entries,1.05 ± 0.051
8,UniProt Q96Q45 and related entries,1.01 ± 0.043
9,ZFR (UniProt Q96KR1),1.05 ± 0.11
10,FAHD2A (UniProt Q96GK7),0.971 ± 0.016
11,CCDC124 (UniProt Q96CT7),1.86 ± 0.17
12,UniProt Q93073 and related entries,0.972 ± 0.024
13,UniProt Q92973 and related entries,1.03 ± 0.083
14,UniProt Q96B36 and related entries,0.953 ± 0.014
15,SLC7A6OS (UniProt Q96CW6),1.01 ± 0.013
16,UniProt Q96CB8 and related entries,1.2 ± 0.12
17,UniProt Q96GX9 and related entries,1.03 ± 0.011
18,TOE1 (UniProt Q96GM8),1.1 ± 0.064
19,UniProt Q96CP6 and related entries,1.018 ± 0.0049
20,EAF1 (UniProt Q96JC9),1.03 ± 0.047

row,Target,NP40-soluble protein abundance
1,HSPBAP1 (UniProt Q96EW2),0.969 ± 0.015
2,DNAJA3 (UniProt Q96EY1),0.942 ± 0.034
3,UniProt Q96Q11 and related entries,1.06 ± 0.051
4,MMAB (UniProt Q96EY8),0.978 ± 0.019
5,UniProt Q96N16 and related entries,1.1 ± 0.024
6,UniProt Q96MG7,0.961 ± 0.024
7,UniProt Q96DA6 and related entries,0.996 ± 0.066
8,FUBP3 (UniProt Q96I24),0.9682 ± 0.0077
9,PYCR2 (UniProt Q96C36),0.9755 ± 0.0097
10,UniProt Q96EA4,0.978 ± 0.012
11,PRRC1 (UniProt Q96M27),1.05 ± 0.05
12,UniProt Q969M3 and related entries,0.998 ± 0.018
13,UniProt Q96HE7,1.07 ± 0.044
14,UniProt Q96G28 and related entries,0.943 ± 0.043
15,GTF3C6 (UniProt Q969F1),0.99 ± 0.047
16,UniProt Q96EZ8 and related entries,1.06 ± 0.061
17,RBM14 (UniProt Q96PK6),1.31 ± 0.17
18,LIN37 (UniProt Q96GY3),1.02 ± 0.026
19,WDR92 (UniProt Q96MX6),1.09 ± 0.043
20,ATG4C (UniProt Q96DT6),1.01 ± 0.065

# Same assay, conditions: concentration: 10mM
row,Target,NP40-soluble protein abundance
1,METTL2A (UniProt Q96IZ6),0.978 ± 0.026
2,CHCHD1 (UniProt Q96BP2),0.968 ± 0.018
3,UniProt Q92997 and related entries,0.996 ± 0.02
4,SNF8 (UniProt Q96H20),0.926 ± 0.064
5,SMARCD1 (UniProt Q96GM5),1.01 ± 0.12
6,UniProt Q96PE3 and related entries,0.943 ± 0.011
7,UniProt Q96B01 and related entries,1.07 ± 0.058
8,UniProt Q96Q45 and related entries,0.9947 ± 0.0086
9,ZFR (UniProt Q96KR1),1.09 ± 0.12
10,FAHD2A (UniProt Q96GK7),0.982 ± 0.031
11,CCDC124 (UniProt Q96CT7),2.16 ± 0.25
12,UniProt Q93073 and related entries,0.971 ± 0.027
13,UniProt Q92973 and related entries,0.978 ± 0.057
14,UniProt Q96B36 and related entries,0.983 ± 0.041
15,SLC7A6OS (UniProt Q96CW6),1.01 ± 0.046
16,UniProt Q96CB8 and related entries,1.24 ± 0.15
17,UniProt Q96GX9 and related entries,1 ± 0.033
18,TOE1 (UniProt Q96GM8),1.15 ± 0.19
19,UniProt Q96CP6 and related entries,1.01 ± 0.053
20,EAF1 (UniProt Q96JC9),1.04 ± 0.074

row,Target,NP40-soluble protein abundance
1,HSPBAP1 (UniProt Q96EW2),0.981 ± 0.013
2,DNAJA3 (UniProt Q96EY1),1.01 ± 0.081
3,UniProt Q96Q11 and related entries,1.05 ± 0.07
4,MMAB (UniProt Q96EY8),0.99 ± 0.022
5,UniProt Q96N16 and related entries,1.11 ± 0.034
6,UniProt Q96MG7,0.912 ± 0.041
7,UniProt Q96DA6 and related entries,0.957 ± 0.035
8,FUBP3 (UniProt Q96I24),0.978 ± 0.02
9,PYCR2 (UniProt Q96C36),1 ± 0.032
10,UniProt Q96EA4,0.956 ± 0.034
11,PRRC1 (UniProt Q96M27),1 ± 0.093
12,UniProt Q969M3 and related entries,0.998 ± 0.025
13,UniProt Q96HE7,1.09 ± 0.052
14,UniProt Q96G28 and related entries,0.922 ± 0.098
15,GTF3C6 (UniProt Q969F1),1.01 ± 0.035
16,UniProt Q96EZ8 and related entries,1.1 ± 0.053
17,RBM14 (UniProt Q96PK6),1.3 ± 0.16
18,LIN37 (UniProt Q96GY3),0.998 ± 0.041
19,WDR92 (UniProt Q96MX6),1.12 ± 0.059
20,ATG4C (UniProt Q96DT6),0.996 ± 0.039

# From the supplement of paper PMC6411743
